The whole screen tested about 300,000 compounds, of which about 5,400 (1.8%) were called active. The shares of active, inactive and inconclusive entries below differ from those in the screen. Calls come from the whole dose curve; tested in HEK293 cells. A potency beside an inconclusive call is a rough fit, not a confirmed value.
Assay: qHTS for inhibitors of binding or entry into cells for Marburg Virus
Details: Marburg virus pseudotyped entry inhibition, cell reporter; activity change, negative = inhibition: at 37.8 µM (top of the series) unless noted
% is set by controls: 0 for no effect and ±100 for the full control effect; potency is the fitted concentration of half-maximal effect.

Compound	activity change, negative = inhibition	Potency
O=C(Cn1nc(Cc2cccnc2)c2ccccc2c1=O)Nc1cccc(C(F)(F)F)c1	inactive: -5.21% [at 46.1 µM]	
COc1cc(N2C(=O)C=CC2=O)ccc1N1C(=O)C=CC1=O		inconclusive: 35.5 µM [inhibitor, single point]
Clc1ccc(SCCOCCN2CCCCC2)cc1		inconclusive: 0.708 µM [activator, partial curve, poor fit]
COc1ccc2c(C)cc(SCC(=O)Nc3cccnc3Cl)nc2c1		inconclusive: 5.01 µM [activator, single point]
CCC(CNC(=O)c1c(C)nn(-c2ccccc2)c1Cl)c1ccccc1 (centres undefined)		inconclusive: 20.6 µM [inhibitor, partial curve, poor fit]
COC(=O)NNC(=O)COc1ccccc1C		inconclusive: 15.8 µM [activator, single point]
Cc1nc(SCC(=O)c2cc3ccccc3oc2=O)c(C#N)c(-c2cccs2)c1C(=O)Nc1ccccc1		inconclusive: 7.94 µM [inhibitor, partial curve, poor fit]
Cc1ncc(CO)c(/C=N/NC(=O)c2cc(Br)ccc2O)c1O		inconclusive: 23.1 µM [inhibitor, single point]
Cc1ccc(CCNc2ccccc2)c[n+]1[O-]	inactive: 18%	
Cc1cccc(-n2ccnc2SCC(=O)Nc2nccs2)c1C		inconclusive: 8.91 µM [inhibitor, partial curve, poor fit]
O=C1/C(=C/c2ccccc2)CSc2sccc21		inconclusive: 0.316 µM [activator, partial curve, poor fit]
COc1cccc(OC)c1C(=O)Nc1cccc(-c2nc3cc(C)cc(C)c3o2)c1	inactive: -29.7% [at 46.1 µM]	
Clc1ccc2nc(-c3ccc(Br)o3)c(Nc3ccc4c(c3)OCCO4)n2c1	inactive: 12.9% [at 46.1 µM]	
Nc1c(Cl)c(Cl)nc(C(=O)N/N=C/c2cccnc2)c1Cl	inactive: -3.93% [at 14.2 µM]	
COc1cc(/C=C2\CCC(C)C3=C(c4cc(OC)c(OC)c(OC)c4)C(C#N)=C(N)OC32)cc(OC)c1OC (centres undefined)		inconclusive: 0.112 µM [inhibitor, full curve, poor fit]
COc1ccc(Nc2ncnc3sc(C)cc23)c(OC)c1	inactive: 4.16%	
CCC(=O)OCCCNc1nc(-c2ccc(Cl)cc2)nc2ccccc12		inconclusive: 11.2 µM [inhibitor, single point]
COc1ccc(NC(=O)N2CCc3ccccc32)cc1		inconclusive: 6.31 µM [inhibitor, full curve, poor fit]
O=C(C(=Cc1ccccc1)CN1CCCCC1)c1ccccc1		inconclusive: 5.01 µM [inhibitor, full curve, poor fit]
CCOc1ccc(-c2nc(SCC(=O)Nc3ccc4c(c3)OCCO4)c(-c3ccc(F)cc3)[nH]2)cc1	inactive: 18.9% [at 46.1 µM]	
CC(C)c1ccccc1OCC(O)CN1CCN(S(=O)(=O)c2ccc([N+](=O)[O-])cc2)CC1 (centres undefined)		inconclusive: 35.5 µM [inhibitor, single point]
CCCN(CCC)S(=O)(=O)c1ccc2c(c1)CCCN2C(C)=O	inactive: 6.26%	
CC1CN(C(=O)N2c3ccccc3Sc3ccccc32)C(C)CC1=O (centres undefined)	inactive: -27.7%	

Compound	activity change, negative = inhibition	Potency
Cn1c(N/N=C/c2c[nH]c3ccccc23)nc2ccccc21		inconclusive: 35.5 µM [inhibitor, single point]
CC12CCC(O)CC1=CCC1C2CCC2(C)C(c3ccn[nH]3)CCC12 (centres undefined)		inconclusive: 17.8 µM [inhibitor, single point]
CCOc1ccc(-c2nonc2NC(=O)c2ccc(C)cc2)cc1OCC		inconclusive: 3.55 µM [inhibitor, single point]
CCOC(=O)C1(Cc2ccccc2)CCN(Cc2cccn2-c2nccs2)CC1		inconclusive: 12.6 µM [inhibitor, partial curve, poor fit]
CC(C)Cn1c(N)c(C(=O)COC(=O)C2CCCCC2)c(=O)n(C)c1=O	inactive: 1.21%	
COCc1cc(N2CCCCC2)nc(-c2ccccc2)n1		inconclusive: 35.5 µM [inhibitor, partial curve, poor fit]
COC(=O)c1ccc(OCCOc2ccccc2)cc1		inconclusive: 1.58 µM [activator, partial curve]
COc1ccc(C(=O)NC2CCCc3ccccc32)cc1Br (centres undefined)		inconclusive: 20 µM [inhibitor, single point]
CCC(=O)N1CCc2cc(Br)cc(S(=O)(=O)CCC(=O)NCCc3ccccc3Cl)c21	inactive: 27.9% [at 46.1 µM]	
Cc1cc2nc(CCN(Cc3cccnc3)C(=S)Nc3ccc(F)cc3)[nH]c2cc1C		inconclusive: 20.6 µM [inhibitor, partial curve, poor fit]
O=C(O)c1ccc(COc2ccc3c(c2)CCC3)cc1		inconclusive: 11.2 µM [inhibitor, single point]
CCOc1cc(CNCC2CCCO2)cc(Br)c1OCC(N)=O (centres undefined)		inconclusive: 1.16 µM [inhibitor, single point]
O=C(Cc1ccc(-c2ccccc2)cc1)NCCN1CCOCC1	inactive: 12.8% [at 46.1 µM]	
CC(C)=CCCC(C)=CCN1C(=O)[C@@]2(C[C@@H](C)C[C@@H](C)O2)c2ccccc21	inactive: -6.83% [at 14.2 µM]	
COC(=O)c1ccc(NC(=S)N2CCN(C(=O)c3ccco3)CC2)cc1		inconclusive: 22.4 µM [activator, single point]
c1ccc(-c2csc(NC3CCCCC3)n2)cc1		inconclusive: 31.6 µM [inhibitor, single point]
Cc1ccc(NC(=O)CCNS(=O)(=O)c2cccc3nsnc23)cc1		inconclusive: 28.2 µM [activator, single point]
Cn1c(CCN2CCCCC2)nc2cc(NS(=O)(=O)c3ccc(Cl)cc3)ccc21	inactive: -22.5%	
CCN(CC)C(=O)CSc1nc(O)c(Cc2ccccc2)c(=O)n1-c1ccccc1C		inconclusive: 35.5 µM [activator, single point]
COc1ccc(-n2nc(C(=O)N(C)C)nc2-c2ccccc2)cc1		inconclusive: 5.62 µM [inhibitor, single point]
Cc1cc(/C=N/n2cnnc2)c(C)n1-c1ccc(OCc2ccc(Cl)cc2Cl)cc1		active: 8.91 µM
Cc1ccccc1OCCNc1cc(N2CCCCC2)ccc1[N+](=O)[O-]	inactive: -1.62% [at 46.1 µM]	
N#Cc1c(NC(=O)CSc2ncn(-c3ccccc3)n2)sc2c1CCCC2		inconclusive: 6.31 µM [inhibitor, single point]

Compound	activity change, negative = inhibition	Potency
CCc1ccc(N(C(=O)c2snc(C(N)=O)c2N)C(C(=O)NCC2CCCO2)c2cccs2)cc1 (centres undefined)		inconclusive: 25.9 µM [inhibitor, single point]
COc1cccc2sc(Nc3nnc(-c4cccs4)o3)nc12		inconclusive: 17.8 µM [inhibitor, single point]
CSc1nc2nccc(-c3ccc(Cl)cc3)n2n1	inactive: 15.7%	
Cn1cnc2c(cnn2C)c1=N	inactive: 6.28% [at 46.1 µM]	
Cc1ccc([N+](=O)[O-])cc1NC(=O)c1c(-c2ccccc2)noc1C		inconclusive: 0.282 µM [activator, full curve, poor fit]
Cc1ccc(OCC(=O)Nc2ccc(CN3CCCCC3)cc2)c(C)c1		inconclusive: 3.16 µM [inhibitor, single point]
Cn1c(SCC(=O)NC2CC2)nnc1-c1cccs1	inactive: 28% [at 46.1 µM]	
Cc1ccc(C(=O)Nc2nc3n(n2)C(c2ccccc2)C=C(c2ccccc2)N3)cc1 (centres undefined)		inconclusive: 17.8 µM [inhibitor, single point]
O=C(O)c1ccc(/C=C2\CCCc3c2nc2ccccc2c3C(=O)O)cc1		inconclusive: 11.2 µM [activator, partial curve, poor fit]
Cc1[nH]n(-c2ccccc2)c(=O)c1C(c1ccc([N+](=O)[O-])cc1)c1c(C)[nH]n(-c2ccccc2)c1=O		inconclusive: 20.6 µM [inhibitor, single point]
COc1ccccc1OCC(O)Cn1nc(C)cc1C (centres undefined)	inactive: 28.2%	
CC(=O)Nc1ccc(N2Cc3ccccc3C2)cc1		inconclusive: 2.82 µM [inhibitor, partial curve, poor fit]
Cc1nn(-c2ccccc2)c(N2CCCC2)c1/C=N/NC(=S)Nc1ccccc1F		inconclusive: 29.1 µM [inhibitor, single point]
O=C(/C=C/c1ccc(N2CCOCC2)cc1)c1ccccc1		inconclusive: 31.6 µM [inhibitor, single point]
O=C(c1ccco1)N1CCN(CCCCOc2cccc3ccccc23)CC1		inconclusive: 3.16 µM [inhibitor, single point]
COc1cc(OC)cc(C(=O)N[C@H](C(=O)Nc2ccccc2N2CCOCC2)C(C)C)c1		inconclusive: 1.64 µM [inhibitor, full curve, poor fit]
C/C(CC(=O)Nc1ccc(Cl)c(C(F)(F)F)c1)=N\NC(=O)c1ccccc1O		active: 18.4 µM
O=C(CCc1ccccc1)Nc1cc(NC(=O)CCc2ccccc2)cc(C(=O)O)c1		inconclusive: 3.98 µM [activator, single point]
Cc1ccc(-c2nn(Cc3ccccc3)cc2C=O)cc1		inconclusive: 0.112 µM [activator, full curve, poor fit]
CCn1cc(C(=O)O)c(=O)c2cc(F)c(N3CCN(C(=S)NC(=O)c4c(OC)cccc4OC)CC3)cc21	inactive: -3.05%	
N=c1c2c(-c3ccccc3)c(-c3ccccc3)n(Cc3ccco3)c2ncn1Cc1ccco1		inconclusive: 11.2 µM [inhibitor, partial curve, poor fit]
C[N+](C)=C1SCC(C)(/C=N/O)S1 (centres undefined)	inactive: 3.84%	
Clc1ccc(CNc2ccccn2)cc1		inconclusive: 5.01 µM [activator, single point]

Single records, from the list above.
COc1cc(OC)cc(C(=O)N[C@H](C(=O)Nc2ccccc2N2CCOCC2)C(C)C)c1 as listed: Potency: inconclusive: 1.64 µM [inhibitor, full curve, poor fit]
N=c1c2c(-c3ccccc3)c(-c3ccccc3)n(Cc3ccco3)c2ncn1Cc1ccco1 as listed: Potency: inconclusive: 11.2 µM [inhibitor, partial curve, poor fit]
Clc1ccc(CNc2ccccn2)cc1 as listed: Potency: inconclusive: 5.01 µM [activator, single point]

— PubChem BioAssay AID540276 (National Center for Advancing Translational Sciences (NCATS), 2011)
